Laboratory results: PubChem BioAssay AID2685 (National Center for Advancing Translational Sciences (NCATS), 2010)
Some of the results follow. These are further read-outs of the screen, such as a control signal, another cell line or another target. No call is given for them. Compounds called inactive in the main read-out are mostly missing here. The note in brackets gives the kind of curve behind each potency; many fits are weak.

Assay: qHTS Assay for Lipid Storage Modulators in Drosophila S3 Cells;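 for cell number change: cells counted by Cell Tracker Red CMTPX staining in the red channel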
Settings: BODIPY lipid droplet fluorescence, 18-24 h; for cell number change: measured here: cell count max response, cells fed with added oleic acid
Outline: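 Drosophila S3 cells got compounds at several concentrations plus oleic acid (400 uM solution). Laser-scanning cytometry with 488 nm excitation read lipid droplets at 500-530 nm and cells at 575-640 nm. Percent activity was relative to 20 uM Triacsin C.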

[1] = measured here: lipid fluorescence (Fed channel) AC50, cells fed with added oleic acid
[2] = measured here: cell number channel AC50, cells fed with added oleic acid

| SMILES | cell number change [%] | AC50 [1] | AC50 [2] |
| --- | --- | --- | --- |
| COC(=O)CCCC(=O)N1CCCC(CNS(=O)(=O)c2ccc(OC)cc2)C1 (stereo not drawn) | 8.54 | 0.0164 µM [rising, full curve, poor fit] |  |
| COc1cc(CNc2ccc3[nH]c(=O)[nH]c3c2)ccc1OCc1ccc(F)cc1 |  | 8.2 µM [rising, partial curve] | 7.31 µM [falling, single point] |
| CC1(C)CC(=O)C(C2=NC(C)(C)Cc3ccccc32)=C(O)C1 | -8.71 |  |  |
| COc1ccc(/C(C)=C2/SC(=S)N(CCC(=O)O)C2=O)cc1 | 87.1 |  | 20.6 µM [rising, partial curve] |
| O=C(c1ccc(Cl)cc1)N(Cc1ccc(Br)cc1)N1C(=O)CCC1=O | 24.1 | 2.59 µM [rising, partial curve, poor fit] |  |
| CSc1ccc(CCNC(=O)C2CCN(c3nnc(-n4cccc4)s3)CC2)cc1 | 10.6 |  |  |
| O=C(NS(=O)(=O)c1ccccc1Cl)c1ccc[nH]1 | -22.2 | 0.58 µM [falling, full curve] |  |
| C(=N\n1cnnc1)/c1ccc(OCc2cccc3ccccc23)cc1 | 36.5 | 0.206 µM [rising, full curve, poor fit] | 29.1 µM [rising, single point] |
| CN1Cc2cc(C(=O)c3ccccc3O)cnc2NC1=O | 15.9 |  |  |
| CCOC(=O)COc1c(/C=N\O)cc(Cl)cc1OC | -93.3 | 29.1 µM [falling, partial curve] |  |
| N#CC1(NC(=O)CSc2n[nH]c(-c3ccccc3)n2)CCCCC1 | 41.9 | 18.4 µM [falling, single point] | 10.3 µM [rising, partial curve, poor fit] |
| CCN1CCN(CCCNC(=O)c2csc3c2CCCCC3)CC1 | 8.88 | 2.31 µM [falling, partial curve, poor fit] |  |
| Cc1nccn1CCOc1ccccc1Cl | 30.9 |  | 0.411 µM [rising, full curve, poor fit] |
| C=C(C(=O)Oc1ccccc1C(C)(C)C)c1ccccc1 | -49.3 | 1.03 µM [falling, single point] | 8.2 µM [falling, single point] |
| COc1ccc(/C=C2\N=C(C)N(c3ccc(C(=O)O)cc3)C2=O)cc1OC | 98.3 | 5.8 µM [falling, single point] | 29.1 µM [rising, single point] |
| COC(=O)c1ccccc1NC(=O)c1cn(-c2ccc(C)c(C)c2)c(=O)c2ccccc12 | -7.66 |  |  |
| CC(C)CC(=O)Nc1cccc(NC(=O)c2ccccc2Cl)c1 |  | 0.146 µM [rising, partial curve, poor fit] |  |
| CC(C)(C)c1ccc(C(=O)C2CCCN(C(=O)c3ccccn3)C2)cc1 (stereo not drawn) | -23.9 |  |  |
| Cc1ccc(OCCNC(=O)/C=C/c2ccccc2)cc1 | -49 | 29.1 µM [falling, single point] | 29.1 µM [falling, single point] |
| CN(C)C(=O)COc1ccc(C(=O)/C=C/c2cccnc2)cc1 | -5.71 |  |  |

| SMILES | cell number change [%] | AC50 [1] | AC50 [2] |
| --- | --- | --- | --- |
| Cc1cc(C(=O)COc2ccc([N+](=O)[O-])cc2)c(C)n1C1CC1 | -39.5 | 0.116 µM [falling, full curve, poor fit] | 29.1 µM [falling, single point] |
| O=C1CCCCCN1Cc1ccccc1 |  | 0.13 µM [rising, full curve, poor fit] | 0.13 µM [rising, full curve, poor fit] |
| CNC(=S)Nc1ccc(OC(F)(F)F)cc1 | 20.2 | 0.259 µM [falling, single point] |  |
| O=C1c2cccc3c([N+](=O)[O-])ccc(c23)C(=O)N1c1ccc(Cl)cn1 | -96.2 | 29.1 µM [falling, single point] | 29.1 µM [falling, single point] |
| CCCN1C(=O)c2cc(C(=O)Nc3ccccc3OC)ccc2C1Nc1ccccc1OC (stereo not drawn) | -61.7 | 29.1 µM [falling, single point] | 29.1 µM [falling, single point] |
| CS/C(=C(/C#N)S(=O)(=O)c1ccc(Cl)cc1)N1CCOCC1 | 15.1 | 6.51 µM [rising, single point] |  |
| COc1ccc(NC(=O)c2cccc(N3C(=O)C4C5C=CC(C5)C4C3=O)c2)cc1Cl (stereo not drawn) | 8.73 | 29.1 µM [rising, single point] |  |
| COc1ccccc1C1CC(=O)n2c(nc(-c3ccccc3)c2-c2ccccc2)S1 (stereo not drawn) | 127 | 11.6 µM [rising, partial curve] | 23.1 µM [rising, single point] |
| CN(Cc1c(F)cccc1Cl)C(=O)c1cnc2ccccc2n1 | 11.7 | 0.651 µM [falling, full curve, poor fit] |  |
| CCOC(=O)N1CCN(C(=O)c2ccc(N(Cc3ccc(Cl)cc3)S(C)(=O)=O)cc2)CC1 |  | 20.6 µM [falling, single point] |  |
| Cc1nn(C)cc1S(=O)(=O)NCc1ccc2c(c1)OCO2 | 18.2 | 3.66 µM [falling, single point] |  |
| O=C(Cn1cc(C(=O)C2CCCCC2)c2ccccc21)NCC1CCCO1 (stereo not drawn) | 2.64 |  |  |
| CCOC(=O)c1sc(Nc2ccc(Br)cc2)nc1C | -40 | 32.6 µM [falling, single point] | 29.1 µM [falling, single point] |
| CCCNC(=O)c1ccccc1C(=O)NCCC | -6.92 | 9.2 µM [falling, partial curve, poor fit] |  |
| CCn1cc(C(=O)N2CCN(C3CCCCC3)CC2)c2cc(OC)c(OC)cc2c1=O | 139 |  | 9.2 µM [rising, partial curve] |
| Cc1ccc(OCCC(=O)OCC(=O)NC(=O)c2ccccc2)cc1 | 22 |  |  |
| CCOc1ccc(N(CC(=O)NC2CCCCC2)C(=O)CCC(=O)Nc2ccccn2)cc1 | 15.4 |  |  |
| Fc1ccc(-c2nnc(-c3ccc(Cl)cc3)o2)cc1 | 1.08 |  | 0.058 µM [falling, full curve, poor fit] |
| CC(C(=O)N1CCCC1)N1CCN(S(=O)(=O)c2ccc(C(C)(C)C)cc2)CC1 (stereo not drawn) | -0.129 | 29.1 µM [rising, single point] |  |
| CCCCC(=O)Nc1ccc(S(=O)(=O)Nc2nccc(C)n2)cc1 | -43.9 | 29.1 µM [falling, single point] | 29.1 µM [falling, single point] |

3 structures already listed, ordered by SMILES length, largest number first:

| SMILES | cell number change [%] | AC50 [1] | AC50 [2] |
| --- | --- | --- | --- |
| CCn1cc(C(=O)N2CCN(C3CCCCC3)CC2)c2cc(OC)c(OC)cc2c1=O | 139 |  | 9.2 µM [rising, partial curve] |
| CCCCC(=O)Nc1ccc(S(=O)(=O)Nc2nccc(C)n2)cc1 | -43.9 | 29.1 µM [falling, single point] | 29.1 µM [falling, single point] |
| CNC(=S)Nc1ccc(OC(F)(F)F)cc1 | 20.2 | 0.259 µM [falling, single point] |  |

Remaining list, next part.

| SMILES | cell number change [%] | AC50 [1] | AC50 [2] |
| --- | --- | --- | --- |
| CCCNC(=O)c1ccc(N2CCC3(CC2)CC(c2ccccc2)=NO3)c(NC(=O)c2ccccc2)c1 | 41 | 29.1 µM [falling, single point] | 18.4 µM [rising, single point] |
| Cc1ccc(N(C(=O)c2ccccn2)C2(C(=O)NC3CCCC3)CCCCC2)cc1 | -95.8 | 3.66 µM [falling, full curve] | 16.4 µM [falling, partial curve] |
| COc1ccc(C2CC(c3cccs3)=NN2C(=O)CSc2nc(=O)n3ccccc3n2)cc1 (stereo not drawn) | 42.7 |  |  |
| O=C(NCC1CCCO1)C1CCCN(S(=O)(=O)c2ccc(F)cc2)C1 (stereo not drawn) | 10.6 | 29.1 µM [falling, single point] |  |
| CCN(Cc1ccc2c(c1)OCCO2)C(=O)CN1C(=O)NC2(CCCCC2)C1=O | -4.42 | 29.1 µM [rising, single point] |  |
| Nc1nc2c(c(=O)[nH]1)C(c1cccc3ccccc13)C1=C(N2)c2ccccc2C1=O (stereo not drawn) | -42.3 | 8.2 µM [falling, partial curve] | 20.6 µM [falling, single point] |
| CCN(CC)S(=O)(=O)c1ccc(C(=O)NCc2cccs2)cc1 | -15.1 | 0.00517 µM [falling, full curve, poor fit] | 0.0291 µM [falling, full curve] |
| O=C(O)CCCC(=O)Nc1ccc(-n2ccc(C(F)(F)F)n2)cc1 | -19.4 |  |  |
| Cc1ccc(S(=O)(=O)N2CCCCC2)cc1NC(=O)COC(=O)C1(C)CC1(Cl)Cl (stereo not drawn) | -14.3 |  |  |
| CCn1cc(Cl)c(C(=O)Nc2ccccc2C(N)=O)n1 | -9.6 | 0.259 µM [rising, full curve, poor fit] |  |
| CC1CCC(NC(=O)CCS(=O)(=O)c2ccc3c(c2)NC(=O)CO3)CC1 (stereo not drawn) | 16.4 |  |  |
| CCC(C)N1CC23C=CC(O2)C(C(=O)OC)C3C1=O (stereo not drawn) | -2.7 |  |  |
| CCOC(=O)C1=C(CCc2ccccc2)NC(=O)NC1c1ccc2ccccc2c1 (stereo not drawn) | 8.38 | 29.1 µM [falling, single point] |  |
| CCOc1cc2c3c(c1)C(C)=CC(C)(C)N3C(=O)C2=O | -0.653 | 4.11 µM [falling, full curve, poor fit] |  |
| CCOCCCNC(=O)c1cc(Cl)c(NC(=O)C2=C(C)OCCS2)cc1OC | 10.6 | 0.116 µM [rising, full curve, poor fit] |  |
| CCOc1ccc(N2C(=O)CC(/C=C3/N(C)c4ccccc4C3(C)C)C2=O)cc1 (stereo not drawn) | 13.1 | 6.51 µM [falling, single point] |  |
| COC(=O)C1=C(C)NC(=O)NC1c1ccccc1 (stereo not drawn) | -6.71 |  | 0.00517 µM [falling, full curve, poor fit] |
| Fc1ccc(CSc2nc3ccccc3[nH]2)cc1 | 2.4 |  |  |
| Cc1c(NC2=C(Cl)C(=O)N(c3ccccc3)C2=O)c(=O)n(-c2ccccc2)n1C | 10.9 | 20.6 µM [rising, single point] |  |
| O=C(COC(=O)c1cccc(Cl)c1Cl)NC1CCCC1 | 12 | 6.51 µM [rising, full curve, poor fit] |  |
